# Where “and” joins values, the source holds several entries; their conditions need not be identical. Equal entries are not always repeated. The whole screen tested about 400,000 compounds, of which about 3,700 (0.93%) were called active. The inconclusive results got no clear call from the source; some entries with a clear call stand among them for comparison. Calls follow the shape of the dose curve; as a rule, active = well fitted inhibition curve with a large enough effect; inconclusive = small, poorly fitted or top-dose-only effect, or another doubt; inactive = no such curve, though single readings can be large or run the other way. A potency beside an inconclusive call is a rough fit, not a confirmed value.
# Amino acid sequences for entries named in this document (tags omitted). A change or cut given only in a name is not applied to a line headed by its entry.
# UniProt P11473: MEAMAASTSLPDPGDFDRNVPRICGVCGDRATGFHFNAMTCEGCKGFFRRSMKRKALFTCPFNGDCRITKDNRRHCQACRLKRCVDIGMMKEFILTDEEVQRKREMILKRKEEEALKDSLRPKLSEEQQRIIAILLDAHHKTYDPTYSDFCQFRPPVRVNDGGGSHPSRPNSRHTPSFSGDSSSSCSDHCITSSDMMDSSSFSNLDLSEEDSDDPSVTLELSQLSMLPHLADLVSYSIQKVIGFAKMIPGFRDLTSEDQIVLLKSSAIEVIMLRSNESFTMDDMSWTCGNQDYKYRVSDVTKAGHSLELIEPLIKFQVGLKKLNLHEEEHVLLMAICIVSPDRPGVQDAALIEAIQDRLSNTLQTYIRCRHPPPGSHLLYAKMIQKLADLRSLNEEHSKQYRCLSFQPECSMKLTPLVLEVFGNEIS
# Target: Vitamin D3 receptor (Homo sapiens) (UniProt P11473)
# Experiment: Inhibitors of the vitamin D receptor (VDR): qHTS
# Settings: VDR-SRC2-3 peptide fluorescence polarization, 2 h; max response, negative = inhibition: stronger effect = lower value
# How it was run: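 FP read-out; VDR + SRC2-3 coactivator peptide; 23 nl compound by pintool; 2 h RT incubation; reagents held at 4 deg C, protected from light.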
# % is scaled to controls: 0 for no effect and ±100 for the full control effect; potency is read from the fitted curve at half-maximal effect.
SMILES,"max response, negative = inhibition",Potency
COc1cc2ccc(=O)oc2c(OC)c1OC,inactive: 0.623%,
CCCCCCCCCCCCCCCCOCC(CO)OC(C)=O (stereo not drawn),inactive: -1.83% and inactive: 3.17%,
Cc1ccc(S(=O)(=O)NNc2nnc(C)c(=O)[nH]2)cc1,,"inconclusive: 35.5 µM [inhibitor, partial curve, poor fit]"
C=CCn1nc([N+](=O)[O-])nc1Sc1cccc2cccnc12,,"inconclusive: 89.1 µM [inhibitor, single point]"
CC1(C)N([O-])C2=C(c3ccccc3C2=O)[N+](=O)C1(C)C,,"inconclusive: 79.4 µM [inhibitor, single point]"
O=C(Nc1cccc2ccccc12)c1ccccc1NS(=O)(=O)c1cccc2cccnc12,inactive: 9.4%,
O=C(/C=C/c1ccccc1F)c1cccc([N+](=O)[O-])c1,,active: 12.6 µM
CN(CCc1ccccn1)c1ccc([N+](=O)[O-])cn1,,"inconclusive: 89.1 µM [inhibitor, single point]"
CC(C)(C)C(=O)Nc1nc(=S)ss1,,"inconclusive: 89.1 µM [inhibitor, single point]"
COC(=O)c1c(-c2cccs2)csc1NC(=O)COc1c(C)ccc(C)c1C,,active: 22.4 µM
CN(C1CCCCC1)S(=O)(=O)c1ccc(Cl)c(C(=O)O)c1,,"inconclusive: 22.4 µM [inhibitor, single point]"
Cc1cc(-c2ccccc2)nc2cc(C(=O)NCc3ccco3)nn12,,"inconclusive: 25.1 µM [inhibitor, full curve, poor fit]"
CCCCOc1ccc(CN2C(=O)C(=O)c3cc(Br)cc(C)c32)cc1OC,,active: 14.1 µM
Cc1cc(O)c(C(=O)/C=C/c2ccc(C(C)C)cc2)c(=O)o1,,"inconclusive: 56.2 µM [inhibitor, partial curve, poor fit]"
C=CCn1c2ccccc2c2n[nH]c(=S)nc21,,"inconclusive: 100 µM [inhibitor, partial curve, poor fit]"
NS(=O)(=O)c1ccc(NN=C2CCN(Cc3ccccc3)CC2)c([N+](=O)[O-])c1,inactive: -11.4%,
COc1ccc(OC)c(NC(=O)CSc2ccc(-c3ccco3)nn2)c1,,"inconclusive: 89.1 µM [inhibitor, single point]"
COc1ccc(OCC(=O)NC(=S)N2CCCc3ccccc32)cc1,,"inconclusive: 56.2 µM [inhibitor, single point]"
O=C1C2ON(c3ccc(Cl)cc3)C(c3ccco3)C2C(=O)N1c1ccccc1 (stereo not drawn),,"inconclusive: 70.8 µM [inhibitor, partial curve, poor fit]"
Cc1cc(C)cc(NC(=O)c2cccc(C(=O)Nc3cc(C)cc(C)c3)n2)c1,inactive: -2.6%,
CN=c1sc2c(n1C)C(=O)c1ccccc1C2=O,,"inconclusive: 89.1 µM [inhibitor, single point]"
CN(C)c1ccc(-n2c(CCC(=O)O)ccc2-c2ccccc2)cc1,,"inconclusive: 63.1 µM [inhibitor, partial curve, poor fit]"
Cc1cc(-c2ccc(S(=O)(=O)N3CCN(c4cccc(C)c4C)CC3)s2)on1,inactive: -18.4%,

SMILES,"max response, negative = inhibition",Potency
CCOC(=O)C1=C(CN2CCCCC2)NC(=O)NC1c1cc(C)ccc1C (stereo not drawn),inactive: 10.6% and inactive: 13.1%,
CCOC(=O)c1nn(-c2ccc(C)cc2)c(=O)c2c(N)scc12,,active: 12.6 µM
CCc1cccc(NC(=O)C2CCCN(S(=O)(=O)c3cccs3)C2)c1 (stereo not drawn),,"inconclusive: 89.1 µM [inhibitor, single point]"
CCCCNC1=CC(=O)C(=O)c2ccccc21,,"inconclusive: 0.631 µM [inhibitor, full curve, poor fit]"
C[C@@H](CN1C2=NC[C@H](C)N2C[C@H]1Cc1ccc(O)cc1)NC(=O)CCC1CCCCC1,,"inconclusive: 100 µM [inhibitor, partial curve, poor fit]"
Nc1ccc(N2CCCCC2)c2nonc12,,active: 20 µM
CCCC1C(C#N)=C(N)Oc2n[nH]c(C(C)(C)C)c21 (stereo not drawn),,"inconclusive: 39.8 µM [inhibitor, single point]"
COc1cc(C(c2c(C)[nH][nH]c2=O)c2c(C)[nH][nH]c2=O)ccc1OC(=O)c1cccc(C)c1,,"inconclusive: 79.4 µM [inhibitor, partial curve, poor fit]"
Cc1cccc(C)c1-n1ncc(C(=O)Nc2ccc3c(c2)OCCO3)c1C1CCN(C(=O)OC(C)(C)C)CC1,inactive: 4.36%,
CCC(COC(=O)c1ccccc1)Oc1cc(NCc2ccccc2)c2ncn(C(C)C)c2c1 (stereo not drawn),,active: 79.4 µM
COCc1c(C(=O)NCCOc2ccc(Cl)cc2)oc2ccccc12,,"inconclusive: 100 µM [inhibitor, single point]"
CC(=O)c1cccc(NC(=O)C23CC4CC(C2)CC(n2cncn2)(C4)C3)c1,,"inconclusive: 89.1 µM [inhibitor, single point]"
CN(CC(=O)Nc1ccccc1C(F)(F)F)C(=O)c1ccc2c(=O)n3c(nc2c1)CCC3,inactive: 16.6%,
CCCCn1c(/C=N/Nc2nc3ccccc3[nH]2)nc2ccccc21,inactive: -21.5%,
Cc1c(Cl)cccc1NC(=O)c1ccccc1-c1ccccc1C(=O)O,inactive: -14.8%,
Cc1[nH]n(-c2ccccc2)c(=O)c1C(C[N+](=O)[O-])c1ccc(Cl)cc1 (stereo not drawn),,"inconclusive: 20 µM [inhibitor, partial curve, poor fit]"
N#Cc1cccc(CS(=O)(=O)c2nnnn2C2CCCCC2)c1,,"inconclusive: 44.7 µM [inhibitor, full curve, poor fit]"
O=C(Nc1nc(-c2ccccn2)cs1)Nc1ccc(F)cc1F,,"inconclusive: 50.1 µM [inhibitor, partial curve, poor fit]"
COc1ccc(OCCNC(=S)Nc2cccc3ccccc23)cc1,inactive: 8.12%,
C[n+]1ccn(CC(=O)c2cccs2)c1,,"inconclusive: 89.1 µM [inhibitor, single point]"
COC(=O)c1c(C)nc2ccccc2c1C(=O)O,,"inconclusive: 79.4 µM [inhibitor, single point]"
COc1ccccc1-c1noc(-c2ccc(N3CCN(c4ccccc4)CC3)c([N+](=O)[O-])c2)n1,inactive: 19.7%,
Cc1ccc(S(=O)(=O)NCC2COc3ccccc3O2)cc1 (stereo not drawn),,"inconclusive: 100 µM [inhibitor, single point]"

# Rewritten as tab-separated lines: part of the list above.
SMILES	max response, negative = inhibition	Potency
CN(CC(=O)Nc1ccccc1C(F)(F)F)C(=O)c1ccc2c(=O)n3c(nc2c1)CCC3	inactive: 16.6%	
CCCCn1c(/C=N/Nc2nc3ccccc3[nH]2)nc2ccccc21	inactive: -21.5%	
Cc1c(Cl)cccc1NC(=O)c1ccccc1-c1ccccc1C(=O)O	inactive: -14.8%	

# Next part:

SMILES,"max response, negative = inhibition",Potency
O=C(O)c1cnn(-c2nc(-c3ccc(Br)cc3)cs2)c1C(F)(F)F,,"inconclusive: 89.1 µM [inhibitor, single point]"
C=CCCC(=O)N1C[C@H]2CON(C)[C@H]2C[C@H]1c1ccccc1Br,,"inconclusive: 15.8 µM [inhibitor, partial curve]"
Cc1ccc(S(=O)(=O)/N=C2/NC(=O)/C(=C\c3ccccc3)S2)cc1,,active: 79.4 µM
CN(C)c1ccc(NC(=O)c2cccc(N3C(=O)C4C5C=CC(C5)C4C3=O)c2)cc1 (stereo not drawn),,"inconclusive: 35.5 µM [inhibitor, partial curve, poor fit]"
CCCCCCCCCCCC[n+]1ccc2ccccc2c1,,"inconclusive: 79.4 µM [inhibitor, partial curve]"
CN(C)CCN(Cc1ccco1)S(=O)(=O)c1cc2c(cc1Cl)NC(=O)CO2,inactive: 1.44%,
CC(=O)c1cccc(N2C(=NC(=O)COc3ccccc3)SC3CS(=O)(=O)CC32)c1 (stereo not drawn),,"inconclusive: 39.8 µM [inhibitor, single point]"
COc1ccccc1CCCNC(=O)C1CCC(=O)N(Cc2ccccc2F)C1 (stereo not drawn),inactive: -15%,
COC(=O)C1=C(C)N(Cc2ccccc2)C(=NCc2cc(OC)c(OC)c(OC)c2)N[C@H]1c1ccc(Br)cc1,inactive: -10.9%,
Cn1cc(Br)c(C(=O)n2cc(Br)cn2)n1,,"inconclusive: 56.2 µM [inhibitor, partial curve, poor fit]"
Cn1c(=O)n(C)c2cc(NS(=O)(=O)c3ccccc3)c(NCc3ccccc3)cc21,inactive: 7.65%,
CCOC(=O)c1cnc2sc3c(n2c1=O)CCCC3,inactive: 11.4%,
O=C(Nc1cccc(Cl)c1)c1c(NC(=O)C(F)(F)F)sc2c1CCCC2,,"inconclusive: 56.2 µM [inhibitor, partial curve, poor fit]"
CSc1ccccc1C(=O)C1CCCN(C(=O)c2cncs2)C1 (stereo not drawn),,active: 31.6 µM
COc1ccccc1CC(=O)NC12CC3CC(CC(C3)C1)C2,,"inconclusive: 79.4 µM [inhibitor, single point]"
COc1ccc(/C=C(\NC(=O)c2cccs2)C(=O)Nc2ccccc2C)cc1OC,,"inconclusive: 89.1 µM [inhibitor, single point]"
CCOc1ccccc1N(C)C(=O)Cn1cnc2sc(C)c(S(=O)(=O)N3CCC(C)CC3)c2c1=O,,"inconclusive: 89.1 µM [inhibitor, single point]"
COc1ccc(-n2sc3ccc(F)cc3c2=O)cc1,,"inconclusive: 25.1 µM [inhibitor, full curve, poor fit]"
COc1ccc(OC)c(C2CC(=O)N3CN(c4ccccc4F)CSC3=C2C#N)c1 (stereo not drawn),,active: 35.5 µM
COc1cc2cc(CCCOC(=O)CCCC(=O)O)oc(=O)c2cc1OC,inactive: -7.64%,
O=C(Cn1cc(C(F)(F)F)ccc1=O)N/N=C/c1ccccc1O,,"inconclusive: 10 µM [inhibitor, partial curve, poor fit]"
O=[N+]([O-])c1cc([N+](=O)[O-])c(Oc2cc(Cl)ccc2Cl)cc1NC1CCCCCCC1,,"inconclusive: 100 µM [inhibitor, partial curve, poor fit]"
